PubChem BioAssay AID1671195 – Yale University, 2021

- Purpose: 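Regulators of LDL receptor activity judged by labelled LDL uptake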 (primary screen)
- Cells: human Huh7 hepatoma cells
- Reagent: siRNA pool against human genes, 18 nM
- Time to read-out: about 2 to 2.5 days of knockdown, then 8 h LDL uptake
- Conditions: DiI-labelled LDL at 30 µg/ml for 8 h, in lipoprotein-deficient serum medium
- Measurement: 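Per-cell DiI-LDL intensity by automated imaging; well means scaled to the plate median and given as a robust z-score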
- Reading the numbers: robust z-score: higher = more LDL uptake after knockdown
- Rule for the call: 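Active when two or more replicates show a robust z-score above 2 or below -2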
Here is an unselected part of about 22,000 deposited reagents. In the full data, about 1,510 (6.9%) got an active call. 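Active includes knockdowns raising or lowering LDL uptake; positive z-scores mean more uptake, negative mean less.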

Target gene	robust z-score, replicate 1	robust z-score, replicate 2	robust z-score, replicate 3	Call
LOC400053 (retired record)	0.0103	0.357	0.601	inactive
HNRNPU (heterogeneous nuclear ribonucleoprotein U)	0.66	0.78	2.54	inactive
LOC440264 (retired record)	-0.281	-0.242	-0.208	inactive
UBOX5 (U-box domain containing 5)	6.65	6.43	7.25	active
MAN2B2 (mannosidase alpha class 2B member 2)	1.63	1.58	1.01	inactive
ZBTB22 (zinc finger and BTB domain containing 22)	1.63	0.515	0.779	inactive
TOB1-AS1 (TOB1 antisense RNA 1)	-0.691	-0.818	-0.611	inactive
BTBD16 (BTB domain containing 16)	2.53	3.69	2.88	active
EPB41L4A-AS1 (EPB41L4A antisense RNA 1)	0.335	-0.407	-0.056	inactive
SYN1 (synapsin I)	0.35	-0.00837	-0.419	inactive
PIM1 (Pim-1 proto-oncogene, serine/threonine kinase)	-1.51	-1.55	-1.84	inactive
LOC388274 (retired record)	0.167	0.216	0.608	inactive
KRT14 (keratin 14)	0.861	0.736	1.52	inactive
LOC389393 (retired record)	-1.09	-1.14	-1.32	inactive
LOC441189 (retired record)	1.36	0.0205	-0.304	inactive
HAND2 (heart and neural crest derivatives expressed 2)	-0.959	-1.63	-1.18	inactive
TSPAN8 (tetraspanin 8)	1.32	1.44	2.75	inactive
SPACA9 (sperm acrosome associated 9)	-0.244	-0.0754	0.122	inactive
MKNK2 (MAPK interacting serine/threonine kinase 2)	0.031	0.885	0.349	inactive
KRR1 (KRR1 small subunit processome component)	0.00681	-0.646	0.601	inactive
USP21 (ubiquitin specific peptidase 21)	1.78	0.752	2.8	inactive
FAN1 (FANCD2 and FANCI associated nuclease 1)	-1.18	-0.839	-1.13	inactive
MGAT2	2.14	1.23	2.11	active
PTPN6 (protein tyrosine phosphatase non-receptor type 6)	-0.162	-0.0276	-0.247	inactive
CRYAB (crystallin alpha B)	0.0268	0.223	-0.15	inactive
JADE3 (jade family PHD finger 3)	-0.405	-0.973	-0.0695	inactive
LTV1 (LTV1 ribosome biogenesis factor)	0.401	-0.00606	-0.567	inactive
SGCB (sarcoglycan beta)	0.924	0.347	0.172	inactive
ZBTB16 (zinc finger and BTB domain containing 16)	-0.765	-0.904	-0.327	inactive
ZNRD2 (zinc ribbon domain containing 2)	0.199	-0.357	-0.752	inactive
IL33 (interleukin 33)	-0.0551	0.316	0.687	inactive
STAG2 (STAG2 cohesin complex component)	0.0705	-1.28	0.636	inactive
ADAT1 (adenosine deaminase tRNA specific 1)	-2.55	-0.999	-0.627	inactive
ARV1 (ARV1 fatty acid homeostasis modulator)	-2.08	-1.81	-1.55	inactive
MEAF6 (MYST/Esa1 associated factor 6)	-1.47	-1.25	-1.51	inactive
ZNF595 (zinc finger protein 595)	-0.337	0.0337	-0.26	inactive
CEP44 (centrosomal protein 44)	-0.301	-0.602	-0.333	inactive
CYTL1 (cytokine like 1)	-0.0408	0.265	0.499	inactive
SPACA5 (sperm acrosome associated 5)	-0.948	-0.951	-1.21	inactive
CD300LG (CD300 molecule like family member g)	-0.694	-0.262	-0.544	inactive
LINC00907 (long independently transcribed non-coding RNA 907)	-1.18	-1.04	-1.4	inactive
GJC3 (gap junction protein gamma 3)	-0.0237	0.203	0.419	inactive
HMGN1 (high mobility group nucleosome binding domain 1)	-0.788	-1.46	-1.2	inactive
SHANK1 (SH3 and multiple ankyrin repeat domains 1)	0.446	-1.52	0.518	inactive
LOC100287217	-0.706	0.195	-0.0737	inactive
LRRC56 (leucine rich repeat containing 56)	1.29	1.29	0.452	inactive

Part of the list above, reduced to “robust z-score, replicate 3”:
KRR1 (KRR1 small subunit processome component): 0.601
USP21 (ubiquitin specific peptidase 21): 2.8
FAN1 (FANCD2 and FANCI associated nuclease 1): -1.13
MGAT2: 2.11
PTPN6 (protein tyrosine phosphatase non-receptor type 6): -0.247
